Laboratory results taken from PMC7947682.

T1: Avi-FOXA2 (UniProt Q9Y261)
T1 sequence (chain, biotin on the Avi tag (biotin tagging system with co-expressed E. coli BirA)): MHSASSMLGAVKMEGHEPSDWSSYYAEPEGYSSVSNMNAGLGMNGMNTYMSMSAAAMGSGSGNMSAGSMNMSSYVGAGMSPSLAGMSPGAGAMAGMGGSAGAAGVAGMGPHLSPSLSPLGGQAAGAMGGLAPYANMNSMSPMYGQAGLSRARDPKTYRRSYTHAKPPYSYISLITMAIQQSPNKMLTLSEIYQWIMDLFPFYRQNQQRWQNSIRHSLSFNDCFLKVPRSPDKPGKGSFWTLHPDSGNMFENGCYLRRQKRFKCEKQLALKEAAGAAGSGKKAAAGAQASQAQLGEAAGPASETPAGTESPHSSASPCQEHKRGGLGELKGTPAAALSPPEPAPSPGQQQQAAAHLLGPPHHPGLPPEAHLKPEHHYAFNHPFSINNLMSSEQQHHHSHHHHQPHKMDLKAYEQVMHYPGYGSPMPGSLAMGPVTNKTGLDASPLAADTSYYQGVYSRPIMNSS


Target: T1, Avi-FOXA2
Assay: affinity purification with mass spectrometry; MCF-7 cells transfected with pAvi-FOXA2 and pEF1-BirA; lysate (150 mM NaCl, 1% NP-40, 50 mM Tris-HCl pH 7.4) on streptavidin resin overnight, washed four times; SDS-PAGE, trypsin digest, LTQ Orbitrap Velos

| Binder | binding |
| --- | --- |
| Melanoma-associated antigen D1 (protein, UniProt Q9Y5V3 1-778) MAQKMDCGAGLLGFQAEASVEDSALLMQTLMEAIQISEAPPTNQATAAASPQSSQPPTANEMADIQVSAAAARPKSAFKVQNATTKGPNGVYDFSQAHNAKDVPNTQPKAAFKSQNATPKGPNAAYDFSQAATTGELAANKSEMAFKAQNATTKVGPNATYNFSQSLNANDLANSRPKTPFKAWNDTTKAPTADTQTQNVNQAKMATSQADIETDPGISEPDGATAQTSADGSQAQNLESRTIIRGKRTRKINNLNVEENSSGDQRRAPLAAGTWRSAPVPVTTQNPPGAPPNVLWQTPLAWQNPSGWQNQTARQTPPARQSPPARQTPPAWQNPVAWQNPVIWPNPVIWQNPVIWPNPIVWPGPVVWPNPLAWQNPPGWQTPPGWQTPPGWQGPPDWQGPPDWPLPPDWPLPPDWPLPTDWPLPPDWIPADWPIPPDWQNLRPSPNLRPSPNSRASQNPGAAQPRDVALLQERANKLVKYLMLKDYTKVPIKRSEMLRDIIREYTDVYPEIIERACFVLEKKFGIQLKEIDKEEHLYILISTPESLAGILGTTKDTPKLGLLLVILGVIFMNGNRASEAVLWEALRKMGLRPGVRHPLLGDLRKLLTYEFVKQKYLDYRRVPNSNPPEYEFLWGLRSYHETSKMKVLRFIAEVQKRDPRDWTAQFMEAADEALDALDAAAAEAEARAEARTRMGIGDEAVSGPWSWDDIEFELLTWDEEGDFGDPWSRIPFTFWARYHQNARSRFPQTFAGPIIGPGGTASANFAANFGAIGFFWVE | binds |
| Methylcrotonoyl-CoA carboxylase beta chain, mitochondrial (Fragment) (protein, UniProt Q9HCC0 23-563) YHGDSVASLGTQPDLGSALYQENYKQMKALVNQLHERVEHIKLGGGEKARALHISRGKLLPRERIDNLIDPGSPFLELSQFAGYQLYDNEEVPGGGIITGIGRVSGVECMIIANDATVKGGAYYPVTVKKQLRAQEIAMQNRLPCIYLVDSGGAYLPRQADVFPDRDHFGRTFYNQAIMSSKNIAQIAVVMGSCTAGGAYVPAMADENIIVRKQGTIFLAGPPLVKAATGEEVSAEDLGGADLHCRKSGVSDHWALDDHHALHLTRKVVRNLNYQKKLDVTIEPSEEPLFPADELYGIVGANLKRSFDVREVIARIVDGSRFTEFKAFYGDTLVTGFARIFGYPVGIVGNNGVLFSESAKKGTHFVQLCCQRNIPLLFLQNITGFMVGREYEAEGIAKDGAKMVAAVACAQVPKITLIIGGSYGAGNYGMCGRAYSPRFLYIWPNARISVMGGEQAANVLATITKDQRAREGKQFSSADEAALKEPIIKKFEEEGNPYYSSARVWDDGIIDPADTRLVLGLSFSAALNAPIEKTDFGIFRM | binds |
| Isoform 3 of CREB-regulated transcription coactivator 3 (protein, UniProt Q6UUV7-3 1-618) MAASPGSGSANPRKFSEKIALHTQRQAEETRAFEQLMTDLTLSRVQFQKLQQLRLTQYHGGSLPNVSQLRSSASEFQPSFHQADNVRGTRHHGLVERPSRNRFHPLHRRSGDKPGRQFDGSAFGANYSSQPLDESWPRQQPPWKDEKHPGFRLTSALNRTNSDSALHTSALSTKPQDPYGGGGQSAWPAPYMGFCDGENNGHGEVASFPGPLKEENLLNVPKPLPKQLWETKEIQSLSGRPRSCDVGGGNAFPHNGQNLGLSPFLGTLNTGGSLPDLTNLHYSTPLPASLDTTDHHFGSMSVGNSVNNIPAAMTHLGIRSSSGLQSSRSNPSIQATLNKTVLSSSLNNHPQTSVPNASALHPSLRLFSLSNPSLSTTNLSGPSRRRQPPVSPLTLSPGPEAHQGFSRQLSSTSPLAPYPTSQMVSSDRSQLSFLPTEAQAQVSPPPPYPAPQELTQPLLQQPRAPEAPAQQPQAASSLPQSDFQLLPAQGSSLTNFFPDVGFDQQSMRPGPAFPQQVPLVQQGSRELQDSFHLRPSPYSNCGSLPNTILPDSSTSLFKDLNSALAGLPEVSLNVDTPFPLEEELQIEPLSLDGLNMLSDSSMGLLDPSVEETFRADRL | binds |
| DDB1- and CUL4-associated factor 7 (protein, UniProt P61962 1-342) MSLHGKRKEIYKYEAPWTVYAMNWSVRPDKRFRLALGSFVEEYNNKVQLVGLDEESSEFICRNTFDHPYPTTKLMWIPDTKGVYPDLLATSGDYLRVWRVGETETRLECLLNNNKNSDFCAPLTSFDWNEVDPYLLGTSSIDTTCTIWGLETGQVLGRVNLVSGHVKTQLIAHDKEVYDIAFSRAGGGRDMFASVGADGSVRMFDLRHLEHSTIIYEDPQHHPLLRLCWNKQDPNYLATMAMDGMEVVILDVRVPCTPVARLNNHRACVNGIAWAPHSSCHICTAADDHQALIWDIQQMPRAIEDPILAYTAEGEINNVQWASTQPDWIAICYNNCLEILRV | binds |
| Isoform 2 of Arf-GAP domain and FG repeat-containing protein 1 (protein, UniProt P52594-2 1-522) MAASAKRKQEEKHLKMLRDMTGLPHNRKCFDCDQRGPTYVNMTVGSFVCTSCSGSLRGLNPPHRVKSISMTTFTQQEIEFLQKHGNEVCKQIWLGLFDDRSSAIPDFRDPQKVKEFLQEKYEKKRWYVPPEQAKVVASVHASISGSSASSTSSTPEVKPLKSLLGDSAPTLHLNKGTPSQSPVVGRSQGQQQEKKQFDLLSDLGSDIFAAPAPQSTATANFANFAHFNSHAGGSAASVNANFAHFDNFPKSSSADFGTFNTSQSHQTASAVSKVSTNKAGLQTADKYAALANLDNIFSAGQGGDQGSGFGTTGKAPVGSVVSVPSQSSASSDKYAALAELDSVFSSAATSSNAYTSTSNASSNVFGTVPVVASAQTQPASSSVPAPFGATPSTNPFVAAAGPSVASSTNPFQTNARGATAATFGTASMSMPTGFGTPAPYSLPTSFSGSFQQPAFPAQAAFPQQTAFSQQPNGAGFAAFGQTKPVVTPFGQVAAAGVSSNPFMTGAPTGQFPTGSSSTNPFL | binds |
| Zinc finger CCCH domain-containing protein 18 (Fragment) (protein, UniProt Q86VM9 1-953) MDVAESPERDPHSPEDEEQPQGLSDDDILRDSGSDQDLDGAGVRASDLEDEESAARGPSQEEEDNHSDEEDRASEPKSQDQDSEVNELSRGPTSSPCEEEGDEGEEDRTSDLRDEASSVTRELDEHELDYDEEVPEEPAPAVQEDEAEKAGAEDDEEKGEGTPREEGKAGVQSVGEKESLEAAKEKKKEDDDGEIDDGEIDDDDLEEGEVKDPSDRKVRPRPTCRFFMKGNCTWGMNCRFIHPGVNDKGNYSLITKADPFPPNGAPPLGPHPLMPANPWGGPVVDEILPPPPPEPPTESAWERGLRHAKEVLKKATIRKEQEPDFEEKRFTVTIGEDEREFDKENEVFRDWNSRIPRDVRDTVLEPYADPYYDYEIERFWRGGQYENFRVQYTETEPYHNYRERERERERENRQRERERERERDRERERRQRERERERERERDKERQRRKEEWERERAKRDEKDRQHRDRDREKEREKEKGKPKPRSPQPPSRQAEPPKKEAATTGPQVKRADEWKDPWRRSKSPKKKLGVSVSPSRARRRRKTSASSASASNSSRSSSRSSSYSGSGSSRSRSRSSSYSSYSSRSSRHSSFSGSRSRSRSFSSSPSPSPTPSPHRPSIRTKGEPAPPPGKAGEKSVKKPAPPPAPPQATKTTAPVPEPTKPGDPREARRKERPARTPPRRRTLSGSGSGSGSSYSGSSSRSRSLSVSSVSSVSSATSSSSSAHSVDSEDMYADLASPVSSASSRSPAPAQTRKEKGKSKKEDGVKEEKRKRDSSTQPPKSAKPPAGGKSSQQPSTPQQAPPGQPQQGTFVAHKEIKLTLLNKAADKGSRKRYEPSDKDRQSPPPAKRPNTSPDRGSRDRKSGGRLGSPKPERQRGQNSKAPAAPADRKRQLSPQSKSSSKVTSVPGKASDPGAASTKSGKASTLSRREELLKQLKAVEDAIARKRAKIPGKA | binds |
| Isoform 1 of Histone-arginine methyltransferase CARM1 (protein, UniProt Q86X55-1 1-585) MAAAAAAVGPGAGGAGSAVPGGAGPCATVSVFPGARLLTIGDANGEIQRHAEQQALRLEVRAGPDSAGIALYSHEDVCVFKCSVSRETECSRVGKQSFIITLGCNSVLIQFATPNDFCSFYNILKTCRGHTLERSVFSERTEESSAVQYFQFYGYLSQQQNMMQDYVRTGTYQRAILQNHTDFKDKIVLDVGCGSGILSFFAAQAGARKIYAVEASTMAQHAEVLVKSNNLTDRIVVIPGKVEEVSLPEQVDIIISEPMGYMLFNERMLESYLHAKKYLKPSGNMFPTIGDVHLAPFTDEQLYMEQFTKANFWYQPSFHGVDLSALRGAAVDEYFRQPVVDTFDIRILMAKSVKYTVNFLEAKEGDLHRIEIPFKFHMLHSGLVHGLAFWFDVAFIGSIMTVWLSTAPTEPLTHWYQVRCLFQSPLFAKAGDTLSGTCLLIANKRQSYDISIVAQVDQTGSKSSNLLDLKNPFFRYTGTTPSPPPGSHYTSPSENMWNTGSTYNLSSGMAVAGMPTAYDLSSVIASGSSVGHNNLIPLGSSGAQGSGGGSTSAHYAVNSQFTMGGPAISMASPMSIPTNTMHYGS | binds |
| Isoform 3 of PERQ amino acid-rich with GYF domain-containing protein 2 (protein, UniProt Q6Y7W6-4 1-1286) MAAETQTLNFGPEWLRALSSGGSITSPPLSPALPKYKLADYRYGREEMLALFLKDNKIPSDLLDKEFLPILQEEPLPPLALVPFTEEEQRNFSMSVNSAAVLRLTGRGGGGTVVGAPRGRSSSRGRGRGRGECGFYQRSFDEVEGVFGRGGGREMHRSQSWEERGDRRFEKPGRKDVGRPNFEEGGPTSVGRKHEFIRSESENWRIFREEQNGEDEDGGWRLAGSRRDGERWRPHSPGWREHMERRRRFEFDFRDRDDERGYRRVRSGSGSIDDDRDSLPEWCLEDAEEEMGTFDSSGAFLSLKKVQKEPIPEEQEMDFRPVDEGEECSDSEGSHNEEAKEPDKTNKKEGEKTDRVGVEASEETPQTSSSSARPGTPSDHQSQEASQFERKDEPKTEQTEKAEEETRMENSLPAKVPSRGDEMVADVQQPLSQIPSDTASPLLILPPPVPNPSPTLRPVETPVVGAPGMGSVSTEPDDEEGLKHLEQQAEKMVAYLQDSALDDERLASKLQEHRAKGVSIPLMHEAMQKWYYKDPQGEIQGPFNNQEMAEWFQAGYFTMSLLVKRACDESFQPLGDIMKMWGRVPFSPGPAPPPHMGELDQERLTRQQELTALYQMQHLQYQQFLIQQQYAQVLAQQQKAALSSQQQQQLALLLQQFQTLKMRISDQNIIPSVTRSVSVPDTGSIWELQPTASQPTVWEGGSVWDLPLDTTTPGPALEQLQQLEKAKAAKLEQERREAEMRAKREEEERKRQEELRRQQEEILRRQQEEERKRREEEELARRKQEEALRRQREQEIALRRQREEEERQQQEEALRRLEERRREEEERRKQEELLRKQEEEAAKWAREEEEAQRRLEENRLRMEEEAARLRHEEEERKRKELEVQRQKELMRQRQQQQEALRRLQQQQQQQQLAQMKLPSSSTWGQQSNTTACQSQATLSLAEIQKLEEERERQLREEQRRQQRELMKALQQQQQQQQQKLSGWGNVSKPSGTTKSLLEIQQEEARQMQKQQQQQQQHQQPNRARNNTHSNLHTSIGNSVWGSINTGPPNQWASDLVSSIWSNADTKNSNMGFWDDAVKEVGPRNSTNKNKNNASLSKSVGVSNRQNKKVEEEEKLLKLFQGVNKAQDGFTQWCEQMLHALNTANNLDVPTFVSFLKEVESPYEVHDYIRAYLGDTSEAKEFAKQFLERRAKQKANQQRQQQQQPPQQPPQQPQQQDSVWGMNHSTLHSVFQTNQSNNQQSNFEAVQSGKKKKKQKMVRADPSLLGFSVNASSERLNMGEIETLDDY | binds |

These are yes or no findings as the source states them, for the method shown. Binding seen in cells or lysates may run through a third protein. Here binding means that the protein was enriched with, or labelled near, the bait; the list need not be complete. Where a sequence is shown, tags or fusion partners need not be part of it.
